Data published in paper doi:10.1101/2024.12.01.626218.

Molecular target: T1, His-SUMO-TTF2-Δ1-100 (contains ATPase domain) del1-100 (Mus musculus) (UniProt Q5NC05)
T1 sequence (looked up): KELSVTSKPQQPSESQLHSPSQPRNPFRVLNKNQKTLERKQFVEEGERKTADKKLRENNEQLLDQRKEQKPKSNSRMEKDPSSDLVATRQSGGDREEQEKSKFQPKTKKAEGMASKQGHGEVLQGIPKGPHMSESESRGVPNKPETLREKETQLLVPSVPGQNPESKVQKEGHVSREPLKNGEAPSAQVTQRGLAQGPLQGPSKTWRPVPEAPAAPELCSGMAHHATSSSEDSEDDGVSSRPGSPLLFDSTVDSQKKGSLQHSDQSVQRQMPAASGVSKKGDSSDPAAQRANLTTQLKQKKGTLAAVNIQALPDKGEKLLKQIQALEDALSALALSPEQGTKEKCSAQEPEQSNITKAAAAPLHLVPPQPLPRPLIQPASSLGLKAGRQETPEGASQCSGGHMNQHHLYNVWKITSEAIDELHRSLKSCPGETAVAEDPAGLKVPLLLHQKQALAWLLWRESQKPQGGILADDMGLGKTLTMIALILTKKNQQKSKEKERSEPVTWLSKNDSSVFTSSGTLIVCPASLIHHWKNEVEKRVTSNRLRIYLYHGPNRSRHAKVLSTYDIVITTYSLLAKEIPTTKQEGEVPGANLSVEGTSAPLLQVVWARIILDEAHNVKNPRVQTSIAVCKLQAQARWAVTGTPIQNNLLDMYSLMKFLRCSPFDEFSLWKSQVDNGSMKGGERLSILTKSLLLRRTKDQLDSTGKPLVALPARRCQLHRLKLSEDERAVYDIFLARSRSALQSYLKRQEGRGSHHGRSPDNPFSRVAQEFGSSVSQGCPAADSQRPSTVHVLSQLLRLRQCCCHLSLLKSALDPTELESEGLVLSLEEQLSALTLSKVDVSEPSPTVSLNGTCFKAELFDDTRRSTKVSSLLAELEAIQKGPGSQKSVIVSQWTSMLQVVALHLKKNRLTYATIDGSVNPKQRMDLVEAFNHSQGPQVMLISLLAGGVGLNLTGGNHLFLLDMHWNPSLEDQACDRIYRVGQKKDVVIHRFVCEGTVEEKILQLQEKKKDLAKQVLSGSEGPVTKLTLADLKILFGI
Assay: EMSA
Settings: 10 nM DNA; residues 101-1138

Row | Sequence | binding result
1 | CAGTGCCAAGCTTGCATGCCTGCAGGTCGACTCTAGAGGATCCCCGGGTACCGAGCTCGAATTCGTAATCATGGTCATAG [YX011 80-nt ssDNA] | binds
2 | CAGTGCCAAGCTTGCATGCCTGCAGGTCGACTCTAGAGGATCCCCGGGTACCGAGCTCGAATTCGTAATCATGGTCATAG (double strand) [YX011/YX012 80-bp dsDNA] | binds

Construct, isoform or probe ends are uncertain for at least one entry. At least one verdict was read from the data and is not stated in words by the source. Where a protein sequence is shown, tags need not be part of it.
